Test results: the supplement of paper PMC12823440, “Inhibitors supercharge kinase turnover through native proteolytic circuits” (Nature, 2025)
Where a name gives a salt, the structure may show the parent alone. The list shows a part of the results. The calls rarely recur for the same compound in another form.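 Kinases were expressed as nanoluciferase fusions in K562 cells and luminescence was read every 4 h between 2 and 18 h as percent of control, DMSO set to 100% and a positive control to 0%. A time point counts as decreased when the signal drops significantly (2 sigma). The hit call is the authors' own, does not follow from the count of time points alone, and its rule is not shown.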

The chains behind the UniProt entries cited, without tags or fusion partners. Where a name states a change or a piece, a line headed by the entry shows the natural chain unless it says otherwise.
UniProt P50613: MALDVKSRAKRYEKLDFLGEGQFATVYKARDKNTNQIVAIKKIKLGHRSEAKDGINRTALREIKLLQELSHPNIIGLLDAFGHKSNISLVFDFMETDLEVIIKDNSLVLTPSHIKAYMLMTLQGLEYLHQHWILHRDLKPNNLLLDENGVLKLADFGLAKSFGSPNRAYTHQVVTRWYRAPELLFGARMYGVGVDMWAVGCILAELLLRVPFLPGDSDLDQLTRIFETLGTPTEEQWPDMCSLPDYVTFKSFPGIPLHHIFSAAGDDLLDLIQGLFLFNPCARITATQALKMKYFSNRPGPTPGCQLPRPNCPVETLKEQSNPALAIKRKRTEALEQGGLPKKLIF
UniProt P50750, whole entry: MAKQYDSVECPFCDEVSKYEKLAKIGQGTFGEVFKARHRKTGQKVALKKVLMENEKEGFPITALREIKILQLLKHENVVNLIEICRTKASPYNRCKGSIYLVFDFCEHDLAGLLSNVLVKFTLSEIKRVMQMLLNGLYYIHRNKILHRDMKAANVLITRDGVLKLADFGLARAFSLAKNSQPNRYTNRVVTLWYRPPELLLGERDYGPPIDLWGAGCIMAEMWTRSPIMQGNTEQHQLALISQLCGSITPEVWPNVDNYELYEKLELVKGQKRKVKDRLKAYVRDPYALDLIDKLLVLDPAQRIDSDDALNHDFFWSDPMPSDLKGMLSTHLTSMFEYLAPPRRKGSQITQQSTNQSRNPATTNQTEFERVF
UniProt O96017, whole entry: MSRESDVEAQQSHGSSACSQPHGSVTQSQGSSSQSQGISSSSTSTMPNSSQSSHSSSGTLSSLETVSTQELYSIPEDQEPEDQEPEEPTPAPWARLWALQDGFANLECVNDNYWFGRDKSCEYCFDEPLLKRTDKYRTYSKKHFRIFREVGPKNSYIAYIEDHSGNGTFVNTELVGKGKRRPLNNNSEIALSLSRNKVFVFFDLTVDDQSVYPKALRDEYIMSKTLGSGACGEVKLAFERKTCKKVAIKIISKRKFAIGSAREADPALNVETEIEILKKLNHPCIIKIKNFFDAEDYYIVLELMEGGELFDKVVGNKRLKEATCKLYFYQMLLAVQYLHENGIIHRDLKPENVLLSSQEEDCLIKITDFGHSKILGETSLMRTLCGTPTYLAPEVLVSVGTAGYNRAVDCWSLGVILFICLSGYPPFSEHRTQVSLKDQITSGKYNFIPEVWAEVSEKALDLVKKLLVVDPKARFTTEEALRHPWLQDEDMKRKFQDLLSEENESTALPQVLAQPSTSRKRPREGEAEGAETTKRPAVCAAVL
UniProt P07333, whole entry: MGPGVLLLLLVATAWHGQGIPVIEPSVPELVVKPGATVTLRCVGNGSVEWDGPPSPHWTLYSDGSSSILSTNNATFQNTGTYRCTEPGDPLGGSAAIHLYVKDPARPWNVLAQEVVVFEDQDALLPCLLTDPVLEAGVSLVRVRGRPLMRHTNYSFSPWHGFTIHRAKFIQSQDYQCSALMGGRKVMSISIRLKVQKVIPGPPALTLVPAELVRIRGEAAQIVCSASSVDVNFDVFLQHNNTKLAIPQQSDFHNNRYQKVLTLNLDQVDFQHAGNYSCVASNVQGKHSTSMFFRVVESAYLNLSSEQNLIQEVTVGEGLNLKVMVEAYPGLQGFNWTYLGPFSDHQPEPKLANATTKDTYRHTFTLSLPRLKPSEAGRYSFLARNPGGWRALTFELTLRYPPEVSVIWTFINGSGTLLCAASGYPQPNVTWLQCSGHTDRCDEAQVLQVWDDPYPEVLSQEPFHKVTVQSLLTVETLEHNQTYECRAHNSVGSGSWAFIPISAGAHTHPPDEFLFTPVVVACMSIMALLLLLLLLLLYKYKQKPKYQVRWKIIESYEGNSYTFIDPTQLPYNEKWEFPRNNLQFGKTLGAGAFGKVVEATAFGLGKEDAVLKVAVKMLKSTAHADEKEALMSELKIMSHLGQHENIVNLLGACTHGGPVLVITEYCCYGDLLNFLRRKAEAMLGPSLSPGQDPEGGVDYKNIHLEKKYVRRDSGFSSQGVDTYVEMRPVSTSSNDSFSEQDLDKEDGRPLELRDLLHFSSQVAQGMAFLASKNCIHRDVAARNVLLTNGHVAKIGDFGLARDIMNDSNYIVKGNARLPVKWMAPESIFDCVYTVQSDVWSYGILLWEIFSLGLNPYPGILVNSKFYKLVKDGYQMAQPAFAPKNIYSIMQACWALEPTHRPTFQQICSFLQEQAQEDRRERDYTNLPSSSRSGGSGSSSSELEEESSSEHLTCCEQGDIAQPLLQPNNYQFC
UniProt P41240: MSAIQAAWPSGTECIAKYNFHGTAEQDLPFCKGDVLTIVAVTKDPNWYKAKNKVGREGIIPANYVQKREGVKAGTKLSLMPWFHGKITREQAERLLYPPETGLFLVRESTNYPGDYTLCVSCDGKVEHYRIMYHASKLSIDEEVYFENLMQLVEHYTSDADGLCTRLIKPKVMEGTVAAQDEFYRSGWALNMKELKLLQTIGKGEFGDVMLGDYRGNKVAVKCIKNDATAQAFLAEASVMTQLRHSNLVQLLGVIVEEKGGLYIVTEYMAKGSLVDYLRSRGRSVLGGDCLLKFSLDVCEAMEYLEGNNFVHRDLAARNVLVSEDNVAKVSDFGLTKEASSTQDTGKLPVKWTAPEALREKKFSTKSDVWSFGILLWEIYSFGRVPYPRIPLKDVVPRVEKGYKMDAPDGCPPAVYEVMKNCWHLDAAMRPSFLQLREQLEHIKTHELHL
UniProt P48729: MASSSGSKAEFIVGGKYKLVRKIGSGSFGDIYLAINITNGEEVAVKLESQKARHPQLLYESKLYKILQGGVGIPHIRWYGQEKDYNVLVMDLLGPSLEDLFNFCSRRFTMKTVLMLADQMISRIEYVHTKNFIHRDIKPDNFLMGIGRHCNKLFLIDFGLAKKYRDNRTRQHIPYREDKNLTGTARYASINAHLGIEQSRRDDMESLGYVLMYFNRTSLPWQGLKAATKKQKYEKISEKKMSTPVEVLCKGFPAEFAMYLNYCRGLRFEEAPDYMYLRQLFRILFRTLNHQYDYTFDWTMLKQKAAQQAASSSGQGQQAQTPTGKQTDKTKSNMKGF
UniProt Q9Y463, whole entry, looked up: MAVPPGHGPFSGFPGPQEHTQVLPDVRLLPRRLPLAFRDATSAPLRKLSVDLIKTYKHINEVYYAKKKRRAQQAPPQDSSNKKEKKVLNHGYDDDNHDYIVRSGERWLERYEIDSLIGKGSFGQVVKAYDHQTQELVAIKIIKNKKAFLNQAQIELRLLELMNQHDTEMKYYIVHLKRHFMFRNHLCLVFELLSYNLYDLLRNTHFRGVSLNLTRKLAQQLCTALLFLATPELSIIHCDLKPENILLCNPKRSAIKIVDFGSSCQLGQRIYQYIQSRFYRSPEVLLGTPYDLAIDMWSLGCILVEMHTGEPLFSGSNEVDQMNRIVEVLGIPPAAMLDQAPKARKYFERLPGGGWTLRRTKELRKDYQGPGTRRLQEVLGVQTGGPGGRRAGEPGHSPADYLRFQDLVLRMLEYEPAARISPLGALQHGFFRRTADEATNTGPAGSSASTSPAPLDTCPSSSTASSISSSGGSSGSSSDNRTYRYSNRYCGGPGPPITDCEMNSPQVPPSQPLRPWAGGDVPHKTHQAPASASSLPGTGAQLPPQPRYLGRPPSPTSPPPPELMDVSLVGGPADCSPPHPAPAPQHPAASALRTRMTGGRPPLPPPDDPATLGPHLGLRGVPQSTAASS
UniProt Q92630: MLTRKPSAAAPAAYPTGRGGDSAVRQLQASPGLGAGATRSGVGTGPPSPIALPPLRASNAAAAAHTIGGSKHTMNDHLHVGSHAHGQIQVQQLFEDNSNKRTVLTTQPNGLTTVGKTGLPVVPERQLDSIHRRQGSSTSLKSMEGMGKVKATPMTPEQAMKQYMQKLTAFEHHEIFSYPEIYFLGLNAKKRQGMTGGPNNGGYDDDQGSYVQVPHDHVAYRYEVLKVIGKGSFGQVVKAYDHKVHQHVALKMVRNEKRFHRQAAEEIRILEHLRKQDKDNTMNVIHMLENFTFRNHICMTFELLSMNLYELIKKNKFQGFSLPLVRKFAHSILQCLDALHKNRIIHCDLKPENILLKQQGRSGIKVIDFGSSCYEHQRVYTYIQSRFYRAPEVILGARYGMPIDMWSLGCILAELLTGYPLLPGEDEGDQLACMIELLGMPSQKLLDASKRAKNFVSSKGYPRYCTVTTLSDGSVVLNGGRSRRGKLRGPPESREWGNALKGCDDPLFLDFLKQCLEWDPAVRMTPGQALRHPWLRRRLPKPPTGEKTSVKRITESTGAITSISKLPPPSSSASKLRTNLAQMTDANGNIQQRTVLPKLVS
UniProt P29317, whole entry: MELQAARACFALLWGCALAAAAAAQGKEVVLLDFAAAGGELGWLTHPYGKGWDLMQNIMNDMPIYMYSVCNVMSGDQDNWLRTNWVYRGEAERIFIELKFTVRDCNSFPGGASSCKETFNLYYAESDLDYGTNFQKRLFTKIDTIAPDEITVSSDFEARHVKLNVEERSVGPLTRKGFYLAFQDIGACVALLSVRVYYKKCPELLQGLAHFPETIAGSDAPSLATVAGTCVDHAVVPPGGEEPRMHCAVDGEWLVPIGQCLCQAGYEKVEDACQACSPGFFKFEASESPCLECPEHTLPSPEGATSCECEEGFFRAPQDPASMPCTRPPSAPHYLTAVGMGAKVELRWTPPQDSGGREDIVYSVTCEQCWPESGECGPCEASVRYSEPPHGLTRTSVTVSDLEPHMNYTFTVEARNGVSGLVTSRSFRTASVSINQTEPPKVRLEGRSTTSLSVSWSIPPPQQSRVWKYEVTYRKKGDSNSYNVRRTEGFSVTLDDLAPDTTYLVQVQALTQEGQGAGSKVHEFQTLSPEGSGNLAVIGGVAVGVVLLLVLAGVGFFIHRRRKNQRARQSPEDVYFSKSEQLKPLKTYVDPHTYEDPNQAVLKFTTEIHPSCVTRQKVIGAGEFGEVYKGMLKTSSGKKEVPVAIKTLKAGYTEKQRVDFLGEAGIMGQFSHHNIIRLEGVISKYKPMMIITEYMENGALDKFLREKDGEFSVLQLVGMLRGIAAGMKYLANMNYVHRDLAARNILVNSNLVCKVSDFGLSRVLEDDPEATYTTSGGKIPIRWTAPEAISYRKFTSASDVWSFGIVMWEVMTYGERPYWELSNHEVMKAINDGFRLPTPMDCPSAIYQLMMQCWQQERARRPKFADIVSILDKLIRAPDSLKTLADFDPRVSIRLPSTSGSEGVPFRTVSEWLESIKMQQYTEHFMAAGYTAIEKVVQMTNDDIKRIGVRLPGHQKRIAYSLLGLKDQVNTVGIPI
UniProt Q15303, whole entry R711C: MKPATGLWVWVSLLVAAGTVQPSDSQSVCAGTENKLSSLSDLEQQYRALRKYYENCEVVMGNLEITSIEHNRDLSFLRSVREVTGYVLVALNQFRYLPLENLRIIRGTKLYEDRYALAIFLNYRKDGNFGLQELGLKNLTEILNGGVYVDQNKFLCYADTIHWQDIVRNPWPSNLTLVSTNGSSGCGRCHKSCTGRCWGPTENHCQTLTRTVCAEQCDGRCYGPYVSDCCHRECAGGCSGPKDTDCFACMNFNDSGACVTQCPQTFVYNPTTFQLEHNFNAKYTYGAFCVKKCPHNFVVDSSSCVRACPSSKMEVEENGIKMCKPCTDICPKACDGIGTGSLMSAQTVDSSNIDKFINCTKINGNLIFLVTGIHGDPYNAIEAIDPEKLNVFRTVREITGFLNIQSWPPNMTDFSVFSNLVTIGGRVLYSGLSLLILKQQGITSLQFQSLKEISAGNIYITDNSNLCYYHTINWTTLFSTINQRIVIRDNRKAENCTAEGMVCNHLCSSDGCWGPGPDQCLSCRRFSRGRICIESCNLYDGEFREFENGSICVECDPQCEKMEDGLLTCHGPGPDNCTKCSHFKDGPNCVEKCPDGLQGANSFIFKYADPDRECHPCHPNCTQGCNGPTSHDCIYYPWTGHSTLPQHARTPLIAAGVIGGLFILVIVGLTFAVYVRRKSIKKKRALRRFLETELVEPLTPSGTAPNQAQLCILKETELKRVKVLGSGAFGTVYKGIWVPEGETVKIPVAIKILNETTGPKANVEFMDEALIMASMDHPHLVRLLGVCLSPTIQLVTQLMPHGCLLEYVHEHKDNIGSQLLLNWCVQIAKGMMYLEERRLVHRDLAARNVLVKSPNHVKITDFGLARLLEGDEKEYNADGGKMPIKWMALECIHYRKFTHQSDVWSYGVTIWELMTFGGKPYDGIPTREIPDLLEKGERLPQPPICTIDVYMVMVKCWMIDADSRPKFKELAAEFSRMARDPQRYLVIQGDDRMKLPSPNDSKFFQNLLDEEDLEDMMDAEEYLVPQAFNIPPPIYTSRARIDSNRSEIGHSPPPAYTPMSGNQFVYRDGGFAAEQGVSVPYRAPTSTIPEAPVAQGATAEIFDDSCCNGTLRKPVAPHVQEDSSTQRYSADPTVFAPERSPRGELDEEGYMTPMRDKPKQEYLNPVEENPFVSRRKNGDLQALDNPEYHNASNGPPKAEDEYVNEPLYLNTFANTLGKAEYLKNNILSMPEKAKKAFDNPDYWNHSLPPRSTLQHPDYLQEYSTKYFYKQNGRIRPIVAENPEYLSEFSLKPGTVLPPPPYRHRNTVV

Legend:
Test in all cases: kinase-Nluc reporter destabilization hit call (1 = scored as downregulated) (binary); higher = compound decreases kinase abundance
Conditions in all cases: K562; 2-18 h
[1] = target: CDK7 (UniProt P50613)
[2] = target: CDK9 (UniProt P50750)
[3] = target: CHEK2 (UniProt O96017)
[4] = target: CSF1R (UniProt P07333)
[5] = target: CSK (UniProt P41240)
[6] = target: CSNK1A1 (UniProt P48729)
[7] = target: CSNK1D (UniProt P48730)
[8] = target: DDR1 (UniProt Q08345)
[9] = target: DYRK1B (UniProt Q9Y463)
[10] = target: DYRK2 (UniProt Q92630)
[11] = target: EGFR (UniProt P00533)
[12] = target: EGFR_G719S (UniProt P00533)
[13] = target: EGFR_G719S_T790M (UniProt P00533)
[14] = target: EGFR_L718V (UniProt P00533)
[15] = target: EGFR_L858R (UniProt P00533)
[16] = target: EGFR_L861Q (UniProt P00533)
[17] = target: EGFR_T790M (UniProt P00533)
[18] = target: EPHA2 (UniProt P29317)
[19] = target: ERBB3 (UniProt P21860)
[20] = target: ERBB4_R711C (clone: ERBB4_mut) (UniProt Q15303)

Row | SMILES | kinase-Nluc reporter destabilization hit call [1] | kinase-Nluc reporter destabilization hit call [2] | kinase-Nluc reporter destabilization hit call [3] | kinase-Nluc reporter destabilization hit call [4] | kinase-Nluc reporter destabilization hit call [5] | kinase-Nluc reporter destabilization hit call [6] | kinase-Nluc reporter destabilization hit call [7] | kinase-Nluc reporter destabilization hit call [8] | kinase-Nluc reporter destabilization hit call [9] | kinase-Nluc reporter destabilization hit call [10] | kinase-Nluc reporter destabilization hit call [11] | kinase-Nluc reporter destabilization hit call [12] | kinase-Nluc reporter destabilization hit call [13] | kinase-Nluc reporter destabilization hit call [14] | kinase-Nluc reporter destabilization hit call [15] | kinase-Nluc reporter destabilization hit call [16] | kinase-Nluc reporter destabilization hit call [17] | kinase-Nluc reporter destabilization hit call [18] | kinase-Nluc reporter destabilization hit call [19] | kinase-Nluc reporter destabilization hit call [20]
1 | C=CC(=O)N1CCC[C@@H](n2c(=O)n(-c3ccc(Oc4ccccc4)cc3)c3c(N)nccc32)C1 [Tolebrutinib] (10 µM) | inactive: 0 | inactive: 0 | inactive: 0 | inactive: 0 | inactive: 0 | inactive: 0 | inactive: 0 | inactive: 0 | inactive: 0 | inactive: 0 | inactive: 0 | inactive: 0 | inactive: 0 | inactive: 0 | inactive: 0 | inactive: 0 | inactive: 0 | inactive: 0 | inactive: 0 | inactive: 0
2 | CNS(=O)(=O)C[C@H]1CC[C@H](N(C)c2[nH]cnc3nccc2-3)CC1 [Oclacitinib (maleate)] (10 µM) | inactive: 0 | inactive: 0 | inactive: 0 | inactive: 0 | inactive: 0 | inactive: 0 | inactive: 0 | inactive: 0 | inactive: 0 | inactive: 0 | inactive: 0 | inactive: 0 | inactive: 0 | inactive: 0 | inactive: 0 | inactive: 0 | inactive: 0 | inactive: 0 | inactive: 0 | inactive: 0
3 | NC(=O)c1nc(-c2c(F)cccc2Cl)oc1Nc1ccc(C(=O)N2CCOCC2)cc1 (10 µM) | inactive: 0 | inactive: 0 | inactive: 0 | inactive: 0 | inactive: 0 | inactive: 0 | inactive: 0 | inactive: 0 | inactive: 0 | inactive: 0 | inactive: 0 | inactive: 0 | inactive: 0 | inactive: 0 | inactive: 0 | inactive: 0 | inactive: 0 | inactive: 0 | inactive: 0 | inactive: 0
4 | CCc1ccc(NC(=O)Nc2ccccc2)cc1 (10 µM) | inactive: 0 | inactive: 0 | inactive: 0 | inactive: 0 | inactive: 0 | inactive: 0 | inactive: 0 | inactive: 0 | inactive: 0 | inactive: 0 | inactive: 0 | inactive: 0 | inactive: 0 | inactive: 0 | inactive: 0 | inactive: 0 | inactive: 0 | inactive: 0 | inactive: 0 | inactive: 0
5 | COc1c(OCCCN2CCOCC2)ccc2c3n(c(=NC(=O)c4cnc(N)nc4)nc12)CCN3 [Copanlisib (dihydrochloride)] (10 µM) | inactive: 0 | active: 1 | inactive: 0 | inactive: 0 | inactive: 0 | inactive: 0 | inactive: 0 | inactive: 0 | inactive: 0 | inactive: 0 | inactive: 0 | inactive: 0 | inactive: 0 | inactive: 0 | inactive: 0 | inactive: 0 | inactive: 0 | inactive: 0 | inactive: 0 | inactive: 0
6 | CC(C)=C/C=C1\O[C@@H]2CC(C)=CC(=O)[C@@H]2[C@]1(C)O [Bisabolangelone] (10 µM) | inactive: 0 | inactive: 0 | inactive: 0 | inactive: 0 | inactive: 0 | inactive: 0 | inactive: 0 | inactive: 0 | inactive: 0 | inactive: 0 | inactive: 0 | inactive: 0 | inactive: 0 | inactive: 0 | inactive: 0 | inactive: 0 | inactive: 0 | inactive: 0 | inactive: 0 | inactive: 0
7 | CN1CCC(c2ccccc2CC(C)(C)Nc2nc(N3CCOCC3)nc(-n3c(S(C)(=O)=O)nc4ccccc43)n2)CC1 (10 µM) | inactive: 0 | inactive: 0 | inactive: 0 | inactive: 0 | inactive: 0 | inactive: 0 | inactive: 0 | inactive: 0 | inactive: 0 | inactive: 0 | inactive: 0 | inactive: 0 | inactive: 0 | inactive: 0 | inactive: 0 | inactive: 0 | inactive: 0 | inactive: 0 | inactive: 0 | inactive: 0
8 | Cc1occ2c1C(=O)c1c(O)ccc(O)c1C2 (2.5 µM) | inactive: 0 | inactive: 0 | inactive: 0 | inactive: 0 | inactive: 0 | inactive: 0 | inactive: 0 | inactive: 0 | inactive: 0 | inactive: 0 | inactive: 0 | inactive: 0 | inactive: 0 | inactive: 0 | inactive: 0 | inactive: 0 | inactive: 0 | inactive: 0 | inactive: 0 | inactive: 0
9 | Nc1n[nH]c(N)c1N=Nc1ccc(O)cc1 (10 µM) | inactive: 0 | inactive: 0 | inactive: 0 | inactive: 0 | inactive: 0 | inactive: 0 | inactive: 0 | inactive: 0 | inactive: 0 | inactive: 0 | inactive: 0 | inactive: 0 | inactive: 0 | inactive: 0 | inactive: 0 | inactive: 0 | inactive: 0 | inactive: 0 | inactive: 0 | inactive: 0
10 | Clc1ccc(Nc2cccc(-c3cn[nH]c3)c2)cc1 (10 µM) | inactive: 0 | inactive: 0 | inactive: 0 | inactive: 0 | inactive: 0 | inactive: 0 | inactive: 0 | inactive: 0 | inactive: 0 | inactive: 0 | inactive: 0 | inactive: 0 | inactive: 0 | inactive: 0 | inactive: 0 | inactive: 0 | inactive: 0 | inactive: 0 | inactive: 0 | inactive: 0
11 | COC(=O)c1cc2c(OC(C)C)cc(OC(C)C)cc2[nH]1 (2.5 µM) | inactive: 0 | inactive: 0 | inactive: 0 | inactive: 0 | inactive: 0 | inactive: 0 | inactive: 0 | inactive: 0 | inactive: 0 | inactive: 0 | inactive: 0 | inactive: 0 | inactive: 0 | inactive: 0 | inactive: 0 | inactive: 0 | inactive: 0 | inactive: 0 | inactive: 0 | inactive: 0
12 | NC(=O)c1ccc2nc(-c3ccc(C4(N)CCC4)cc3)c(-c3ccccc3)n2n1 (10 µM) | inactive: 0 | inactive: 0 | inactive: 0 | inactive: 0 | inactive: 0 | inactive: 0 | inactive: 0 | inactive: 0 | inactive: 0 | inactive: 0 | inactive: 0 | inactive: 0 | inactive: 0 | inactive: 0 | inactive: 0 | inactive: 0 | inactive: 0 | inactive: 0 | inactive: 0 | inactive: 0
13 | Cn1cc(C2=C(c3c4n(c5ccccc35)CCC(CN)C4)C(=O)NC2=O)c2ccccc21 (stereo not given) [Bisindolylmaleimide X (hydrochloride)] (2.5 µM) | inactive: 0 | inactive: 0 | inactive: 0 | inactive: 0 | inactive: 0 | inactive: 0 | inactive: 0 | inactive: 0 | inactive: 0 | inactive: 0 | inactive: 0 | inactive: 0 | inactive: 0 | inactive: 0 | inactive: 0 | inactive: 0 | inactive: 0 | inactive: 0 | inactive: 0 | inactive: 0
14 | C=CC(=O)Nc1cccc(Oc2nc(Nc3ccc(N4CCN(C)CC4)cc3)nc3ccsc23)c1 [Olmutinib] (2.5 µM) | inactive: 0 | inactive: 0 | inactive: 0 | inactive: 0 | inactive: 0 | inactive: 0 | inactive: 0 | inactive: 0 | inactive: 0 | inactive: 0 | inactive: 0 | inactive: 0 | inactive: 0 | inactive: 0 | inactive: 0 | inactive: 0 | inactive: 0 | inactive: 0 | inactive: 0 | inactive: 0
15 | COc1cc(-c2cnc(N)c(-c3ccc(NC(=O)c4cn(CC5CCOCC5)cc(-c5ccc(C)cn5)c4=O)cc3F)c2)ccc1OC[C@H]1COCCO1 [DS-1205b (free base)] (10 µM) | inactive: 0 | inactive: 0 | inactive: 0 | inactive: 0 | inactive: 0 | inactive: 0 | inactive: 0 | inactive: 0 | inactive: 0 | inactive: 0 | inactive: 0 | inactive: 0 | inactive: 0 | inactive: 0 | inactive: 0 | inactive: 0 | inactive: 0 | inactive: 0 | inactive: 0 | inactive: 0
16 | CS(=O)(=O)N1CCc2c(-c3cnc(N)nc3)nc(N3CCOCC3)nc21 (10 µM) | inactive: 0 | inactive: 0 | inactive: 0 | inactive: 0 | inactive: 0 | inactive: 0 | inactive: 0 | inactive: 0 | inactive: 0 | inactive: 0 | inactive: 0 | inactive: 0 | inactive: 0 | inactive: 0 | inactive: 0 | inactive: 0 | inactive: 0 | inactive: 0 | inactive: 0 | inactive: 0
17 | C[C@@]12CCc3occc3[C@H]1CC[C@@]13C[C@@H](CC[C@H]12)[C@@](O)(CO)C3 [Cafestol] (10 µM) | inactive: 0 | inactive: 0 | inactive: 0 | inactive: 0 | inactive: 0 | inactive: 0 | inactive: 0 | inactive: 0 | inactive: 0 | inactive: 0 | inactive: 0 | inactive: 0 | inactive: 0 | inactive: 0 | inactive: 0 | inactive: 0 | inactive: 0 | inactive: 0 | inactive: 0 | inactive: 0
18 | O=C(O)/C=C/c1cc(Br)c(Br)c(Br)c1Br (10 µM) | inactive: 0 | inactive: 0 | inactive: 0 | inactive: 0 | inactive: 0 | inactive: 0 | inactive: 0 | inactive: 0 | inactive: 0 | inactive: 0 | inactive: 0 | inactive: 0 | inactive: 0 | inactive: 0 | inactive: 0 | inactive: 0 | inactive: 0 | inactive: 0 | inactive: 0 | inactive: 0

Just kinase-Nluc reporter destabilization hit call [3], for 2 of the compounds above:
Row | SMILES | kinase-Nluc reporter destabilization hit call [3]
3 | NC(=O)c1nc(-c2c(F)cccc2Cl)oc1Nc1ccc(C(=O)N2CCOCC2)cc1 (10 µM) | inactive: 0
10 | Clc1ccc(Nc2cccc(-c3cn[nH]c3)c2)cc1 (10 µM) | inactive: 0
